The assay has as its system Candida albicans. Nature of the assay: Antimicrobial activity against Candida albicans Y-1200-NIH assessed as diameter of growth inhibition zone at 100 ug after 24 hr by well-diffusion method. Type of assay: functional, organism-based.

On to NYSTATIN, for which the inhibition zone (IZ) came to 20 mm.
